According to the supplement of paper PMC10849652:
This is one part of the list.

Protein sequences, listed by entry. Tags and fused reporters are not part of them. Lines headed by an entry give the natural chain unless they say otherwise; changes in a name come on top.
UniProt P23921: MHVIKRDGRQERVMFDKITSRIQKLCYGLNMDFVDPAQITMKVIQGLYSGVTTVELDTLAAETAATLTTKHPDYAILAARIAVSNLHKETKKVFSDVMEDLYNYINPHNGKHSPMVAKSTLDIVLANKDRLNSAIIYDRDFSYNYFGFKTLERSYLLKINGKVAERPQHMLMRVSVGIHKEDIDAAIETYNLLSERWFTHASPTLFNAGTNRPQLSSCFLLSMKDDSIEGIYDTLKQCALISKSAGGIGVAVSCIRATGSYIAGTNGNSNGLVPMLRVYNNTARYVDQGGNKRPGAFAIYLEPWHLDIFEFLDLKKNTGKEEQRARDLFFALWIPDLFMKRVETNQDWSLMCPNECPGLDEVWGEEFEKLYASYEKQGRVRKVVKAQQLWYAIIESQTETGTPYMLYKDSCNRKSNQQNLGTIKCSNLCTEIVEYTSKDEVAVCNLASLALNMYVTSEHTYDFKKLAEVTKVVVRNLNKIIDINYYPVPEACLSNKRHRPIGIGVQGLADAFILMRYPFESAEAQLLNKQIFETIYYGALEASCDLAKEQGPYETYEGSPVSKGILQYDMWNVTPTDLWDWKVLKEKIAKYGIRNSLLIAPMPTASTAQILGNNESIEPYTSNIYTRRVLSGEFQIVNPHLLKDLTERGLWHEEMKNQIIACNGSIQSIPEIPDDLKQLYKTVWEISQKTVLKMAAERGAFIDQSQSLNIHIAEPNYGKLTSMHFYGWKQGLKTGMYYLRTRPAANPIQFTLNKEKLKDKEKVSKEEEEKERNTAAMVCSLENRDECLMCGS
UniProt P31350, whole entry, looked up: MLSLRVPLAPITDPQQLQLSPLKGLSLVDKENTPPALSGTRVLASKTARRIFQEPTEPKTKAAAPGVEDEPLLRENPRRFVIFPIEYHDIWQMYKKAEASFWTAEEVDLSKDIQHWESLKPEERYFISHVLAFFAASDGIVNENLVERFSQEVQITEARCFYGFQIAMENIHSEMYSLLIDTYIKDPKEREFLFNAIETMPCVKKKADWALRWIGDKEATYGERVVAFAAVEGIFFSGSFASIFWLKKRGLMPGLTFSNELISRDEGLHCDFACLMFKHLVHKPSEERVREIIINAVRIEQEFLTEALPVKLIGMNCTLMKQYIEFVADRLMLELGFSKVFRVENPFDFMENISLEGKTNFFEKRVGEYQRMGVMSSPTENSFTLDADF
UniProt P15927: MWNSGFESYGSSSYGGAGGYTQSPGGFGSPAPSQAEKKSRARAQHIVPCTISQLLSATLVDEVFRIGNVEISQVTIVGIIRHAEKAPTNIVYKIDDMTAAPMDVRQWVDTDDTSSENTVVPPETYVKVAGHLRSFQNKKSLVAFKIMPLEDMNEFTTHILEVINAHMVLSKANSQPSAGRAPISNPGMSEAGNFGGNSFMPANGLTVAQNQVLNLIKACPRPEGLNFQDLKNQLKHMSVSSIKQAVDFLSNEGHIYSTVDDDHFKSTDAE
UniProt Q9BWH6: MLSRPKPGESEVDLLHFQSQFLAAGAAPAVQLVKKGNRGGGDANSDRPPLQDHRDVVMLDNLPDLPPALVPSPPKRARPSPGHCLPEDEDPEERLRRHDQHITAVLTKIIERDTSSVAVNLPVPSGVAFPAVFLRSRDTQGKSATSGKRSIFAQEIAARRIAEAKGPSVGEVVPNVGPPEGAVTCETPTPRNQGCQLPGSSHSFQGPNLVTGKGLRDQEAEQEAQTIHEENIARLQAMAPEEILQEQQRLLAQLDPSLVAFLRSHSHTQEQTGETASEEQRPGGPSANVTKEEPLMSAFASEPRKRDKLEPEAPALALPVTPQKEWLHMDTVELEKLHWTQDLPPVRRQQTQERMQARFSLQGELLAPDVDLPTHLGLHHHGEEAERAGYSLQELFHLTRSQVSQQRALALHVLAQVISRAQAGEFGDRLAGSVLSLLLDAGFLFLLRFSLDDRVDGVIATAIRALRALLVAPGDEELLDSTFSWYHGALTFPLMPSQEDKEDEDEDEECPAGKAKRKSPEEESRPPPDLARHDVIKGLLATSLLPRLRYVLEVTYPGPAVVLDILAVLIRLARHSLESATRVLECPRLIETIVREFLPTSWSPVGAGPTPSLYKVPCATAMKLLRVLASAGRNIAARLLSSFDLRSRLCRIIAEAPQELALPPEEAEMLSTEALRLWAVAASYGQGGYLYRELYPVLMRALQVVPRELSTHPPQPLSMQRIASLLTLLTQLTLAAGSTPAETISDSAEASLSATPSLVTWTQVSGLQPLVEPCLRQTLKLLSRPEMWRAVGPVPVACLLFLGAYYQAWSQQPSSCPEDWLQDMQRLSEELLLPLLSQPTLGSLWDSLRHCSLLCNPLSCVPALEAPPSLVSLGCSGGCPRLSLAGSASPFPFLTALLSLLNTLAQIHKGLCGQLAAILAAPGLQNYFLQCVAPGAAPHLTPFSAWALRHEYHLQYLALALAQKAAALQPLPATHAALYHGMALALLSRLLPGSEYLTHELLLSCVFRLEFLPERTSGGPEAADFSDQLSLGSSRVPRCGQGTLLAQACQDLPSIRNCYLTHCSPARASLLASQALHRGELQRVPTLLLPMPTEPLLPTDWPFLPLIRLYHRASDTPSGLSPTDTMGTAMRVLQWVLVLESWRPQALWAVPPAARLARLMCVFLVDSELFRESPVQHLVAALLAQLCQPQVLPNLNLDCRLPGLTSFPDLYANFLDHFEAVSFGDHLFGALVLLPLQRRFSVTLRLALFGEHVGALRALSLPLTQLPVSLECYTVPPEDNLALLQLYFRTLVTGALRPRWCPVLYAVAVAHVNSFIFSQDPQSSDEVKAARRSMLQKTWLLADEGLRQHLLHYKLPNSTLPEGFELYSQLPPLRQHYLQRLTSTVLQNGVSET

Assays:
Assay in all cases: log2 fold change, soluble protein after heating vs DMSO (PISA); higher = thermal stabilisation; K562 cells, 10 uM, 30 min; active = over 0.2 and 3.5 SD of the protein, either way, in both replicates (recomputed)
[1] = compound: COC1=CC=C(C=C1)CN2C=CC3=C2C=C(C=C3)C(=O)NO
Method in brief: (§1)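 Values are thermal stability changes relative to control samples and are taken from duplicates. They are stated as log2 fold changes. Before quantification by TMTpro 16plex LC-MS/MS with equalised channel sums, K562 cells at 2×10^6 cells/mL were treated with 10 μM compound for 30 min, heated in aliquots for 3 min across 48°C-58°C, pooled, extracted in PBS with 0.5% NP-40 at 4°C, and centrifuged at 21,000xg for 90 min to give the soluble supernatant.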

filanesib = compound: CON(C)C(=O)N1N=C(c2cc(F)ccc2F)S[C@@]1(CCCN)c1ccccc1 [filanesib]
Method in brief: as §1

zotarolimus = compound: CO[C@H]1C[C@@H]2CC[C@@H](C)[C@@](O)(O2)C(=O)C(=O)N2CCCC[C@H]2C(=O)O[C@H]([C@H](C)C[C@@H]2CC[C@H](n3cnnn3)[C@H](OC)C2)CC(=O)[C@H](C)/C=C(\C)[C@@H](O)[C@@H](OC)C(=O)[C@H](C)C[C@H](C)/C=C/C=C/C=C/1C [zotarolimus]
Method in brief: as §1

idasanutlin = compound: COc1cc(C(=O)O)ccc1NC(=O)[C@@H]1N[C@@H](CC(C)(C)C)[C@](C#N)(c2ccc(Cl)cc2F)[C@H]1c1cccc(Cl)c1F [idasanutlin]
Method in brief: as §1

alisertib = compound: COc1cc(Nc2ncc3c(n2)-c2ccc(Cl)cc2C(c2c(F)cccc2OC)=NC3)ccc1C(=O)O [alisertib]
Method in brief: as §1

[2] = compound: COc1cc2nc(-c3cc(F)ccc3O)nc(N[C@@H]3CNC[C@H]3C(C)(C)O)c2cc1OC
Method in brief: as §1

gefitinib = compound: COc1cc2ncnc(Nc3ccc(F)c(Cl)c3)c2cc1OCCCN1CCOCC1 [gefitinib]
Method in brief: as §1

[3] = compound: COc1cccc2cc(-c3nc([C@H]4CC[C@H](C(=O)O)CC4)n4ncnc(N)c34)[nH]c12
Method in brief: as §1

lapatinib = compound: CS(=O)(=O)CCNCc1ccc(-c2ccc3ncnc(Nc4ccc(OCc5cccc(F)c5)c(Cl)c4)c3c2)o1 [lapatinib]
Method in brief: as §1

pictilisib = compound: CS(=O)(=O)N1CCN(Cc2cc3nc(-c4cccc5[nH]ncc45)nc(N4CCOCC4)c3s2)CC1 [pictilisib]
Method in brief: as §1

[4] = compound: CS(=O)(=O)c1ccc(-c2cnc(N)c(C(=O)Nc3ccccc3)n2)cc1
Method in brief: as §1

crizotinib = compound: C[C@@H](Oc1cc(-c2cnn(C3CCNCC3)c2)cnc1N)c1c(Cl)ccc(F)c1Cl [crizotinib]
Method in brief: as §1

[5] = compound: C[C@@H]1COCCN1C2=NC(=NC(=C2)C3(CC3)S(=O)(=O)C)C4=C5C=CNC5=CC=C4
Method in brief: as §1

[6] = compound: C[C@H](C1=CC=C(C=C1)C(=O)NC2=C3C=CNC3=NC=C2)N
Method in brief: as §1

duvelisib = compound: C[C@H](Nc1ncnc2nc[nH]c12)c1cc2cccc(Cl)c2c(=O)n1-c1ccccc1 [duvelisib]
Method in brief: as §1

gandotinib = compound: Cc1cc(Nc2cc(CN3CCOCC3)c3nc(C)c(Cc4ccc(Cl)cc4F)n3n2)n[nH]1 [gandotinib]
Method in brief: as §1

tozasertib = compound: Cc1cc(Nc2cc(N3CCN(C)CC3)nc(Sc3ccc(NC(=O)C4CC4)cc3)n2)n[nH]1 [tozasertib]
Method in brief: as §1

[7] = compound: Cc1cc(SCc2sc(-c3ccc(C(F)(F)F)cc3)nc2C)ccc1OCC(=O)O
Method in brief: as §1

doramapimod = compound: Cc1ccc(-n2nc(C(C)(C)C)cc2NC(=O)Nc2ccc(OCCN3CCOCC3)c3ccccc23)cc1 [doramapimod]
Method in brief: as §1

ispinesib = compound: Cc1ccc(C(=O)N(CCCN)[C@@H](c2nc3cc(Cl)ccc3c(=O)n2Cc2ccccc2)C(C)C)cc1 [ispinesib]
Method in brief: as §1

Measured: log2 fold change

RPL36A (UniProt P83881)
inactive: [1] -0.234 | filanesib 0.551 | zotarolimus 0.06 | idasanutlin 0.149 | alisertib -0.131 | [2] -0.205 | gefitinib 0.002 | [3] -0.326 | lapatinib 0.175 | pictilisib -0.284 | [4] -0.132 | crizotinib 0.044 | [5] -0.667 | [6] 0.564 | duvelisib -0.284 | gandotinib 0.358 | tozasertib 0.014 | [7] -0.082 | doramapimod 0.245 | ispinesib -0.284

RPS23 (UniProt P62266)
inactive: [1] -0.022 | filanesib 0.408 | zotarolimus 0.046 | idasanutlin 0.208 | alisertib -0.137 | [2] -0.06 | gefitinib -0.068 | [3] -0.266 | lapatinib 0.173 | pictilisib -0.078 | [4] -0.052 | crizotinib 0.023 | [5] -0.684 | [6] 0.471 | duvelisib -0.264 | gandotinib 0.344 | tozasertib 0.033 | [7] 0.023 | doramapimod 0.218 | ispinesib -0.156

RPL10 (UniProt P27635)
inactive: [1] -0.098 | filanesib 0.526 | zotarolimus 0.024 | idasanutlin 0.234 | alisertib -0.191 | [2] -0.143 | gefitinib -0.045 | [3] -0.478 | lapatinib 0.251 | pictilisib -0.272 | [4] -0.028 | crizotinib 0.057 | [5] -0.684 | [6] 0.434 | duvelisib -0.276 | gandotinib 0.296 | tozasertib 0.103 | [7] 0.059 | doramapimod 0.337 | ispinesib -0.166

RPL18 (UniProt Q07020)
inactive: [1] -0.144 | filanesib 0.718 | zotarolimus -0.042 | idasanutlin 0.399 | alisertib -0.218 | [2] -0.191 | gefitinib -0.071 | [3] -0.514 | lapatinib 0.373 | pictilisib -0.236 | [4] -0.043 | crizotinib 0.071 | [5] -1.02 | [6] 0.658 | duvelisib -0.435 | gandotinib 0.496 | tozasertib 0.061 | [7] -0.01 | doramapimod 0.387 | ispinesib -0.352

RRM1 (UniProt P23921)
inactive: [1] 0.022 | filanesib -0.09 | zotarolimus -0.041 | idasanutlin -0.022 | alisertib 0.006 | [2] -0.02 | gefitinib -0.043 | [3] 0.062 | lapatinib -0.009 | pictilisib 0.06 | [4] 0.021 | crizotinib -0.051 | [5] 0.067 | [6] -0.045 | duvelisib 0.052 | gandotinib -0.098 | tozasertib -0.062 | [7] 0.01 | doramapimod -0.051 | ispinesib 0.058

RPS11 (UniProt P62280)
inactive: [1] -0.083 | filanesib 0.35 | zotarolimus -0.031 | idasanutlin 0.184 | alisertib -0.144 | [2] -0.053 | gefitinib -0.068 | [3] -0.287 | lapatinib 0.135 | pictilisib -0.251 | [4] -0.08 | crizotinib 0.068 | [5] -0.69 | [6] 0.386 | duvelisib -0.269 | gandotinib 0.319 | tozasertib 0.006 | [7] 0.05 | doramapimod 0.297 | ispinesib -0.186

RRM2 isoform 2 (UniProt P31350)
inactive: [1] -0.1 | filanesib -0.04 | zotarolimus 0.019 | idasanutlin 0.004 | alisertib -0.037 | [2] -0.038 | gefitinib 0.002 | [3] 0.016 | lapatinib 0.027 | pictilisib 0.02 | [4] 0.022 | crizotinib 0.02 | [5] 0.005 | [6] -0.096 | duvelisib -0.02 | gandotinib -0.02 | tozasertib -0.028 | [7] 0.005 | doramapimod -0.022 | ispinesib 0.101

RPA2 isoform 3 (UniProt P15927)
inactive: [1] -0.026 | filanesib 0.009 | zotarolimus -0.005 | idasanutlin -0.014 | alisertib -0.024 | [2] 0.03 | gefitinib -0.011 | [3] -0.041 | lapatinib -0.096 | pictilisib -0.049 | [4] -0.011 | crizotinib 0.017 | [5] -0.097 | [6] 0.015 | duvelisib 0.056 | gandotinib 0.033 | tozasertib -0.004 | [7] 0.018 | doramapimod -0.051 | ispinesib -0.024

RPL23 (UniProt P62829)
inactive: [1] -0.034 | filanesib 0.281 | zotarolimus -0.002 | idasanutlin 0.169 | alisertib -0.136 | [2] 0.019 | gefitinib -0.054 | [3] -0.315 | lapatinib 0.099 | pictilisib -0.127 | [4] -0.043 | crizotinib 0.065 | [5] -0.486 | [6] 0.321 | duvelisib -0.176 | gandotinib 0.215 | tozasertib 0.055 | [7] -0.018 | doramapimod 0.203 | ispinesib -0.137

Three neighbouring entries already listed, for reference:
RRM1 (UniProt P23921)
inactive: [1] 0.022 | filanesib -0.09 | zotarolimus -0.041 | idasanutlin -0.022 | alisertib 0.006 | [2] -0.02 | gefitinib -0.043 | [3] 0.062 | lapatinib -0.009 | pictilisib 0.06 | [4] 0.021 | crizotinib -0.051 | [5] 0.067 | [6] -0.045 | duvelisib 0.052 | gandotinib -0.098 | tozasertib -0.062 | [7] 0.01 | doramapimod -0.051 | ispinesib 0.058

RPS11 (UniProt P62280)
inactive: [1] -0.083 | filanesib 0.35 | zotarolimus -0.031 | idasanutlin 0.184 | alisertib -0.144 | [2] -0.053 | gefitinib -0.068 | [3] -0.287 | lapatinib 0.135 | pictilisib -0.251 | [4] -0.08 | crizotinib 0.068 | [5] -0.69 | [6] 0.386 | duvelisib -0.269 | gandotinib 0.319 | tozasertib 0.006 | [7] 0.05 | doramapimod 0.297 | ispinesib -0.186

RRM2 isoform 2 (UniProt P31350)
inactive: [1] -0.1 | filanesib -0.04 | zotarolimus 0.019 | idasanutlin 0.004 | alisertib -0.037 | [2] -0.038 | gefitinib 0.002 | [3] 0.016 | lapatinib 0.027 | pictilisib 0.02 | [4] 0.022 | crizotinib 0.02 | [5] 0.005 | [6] -0.096 | duvelisib -0.02 | gandotinib -0.02 | tozasertib -0.028 | [7] 0.005 | doramapimod -0.022 | ispinesib 0.101

More entries follow:

RPL10A (UniProt P62906)
inactive: [1] -0.12 | filanesib 0.741 | zotarolimus 0.07 | idasanutlin 0.349 | alisertib -0.139 | [2] -0.149 | gefitinib -0.064 | [3] -0.392 | lapatinib 0.373 | pictilisib -0.185 | [4] -0.023 | crizotinib 0.043 | [5] -1.05 | [6] 0.705 | duvelisib -0.362 | gandotinib 0.468 | tozasertib 0.043 | [7] 0.071 | doramapimod 0.422 | ispinesib -0.229

RPS26 (UniProt P62854)
inactive: [1] -0.013 | filanesib 0.473 | zotarolimus 0.013 | idasanutlin 0.147 | alisertib -0.288 | [2] -0.085 | gefitinib -0.068 | [3] -0.277 | lapatinib 0.218 | pictilisib -0.141 | [4] -0.062 | crizotinib -0.028 | [5] -0.697 | [6] 0.402 | duvelisib -0.354 | gandotinib 0.258 | tozasertib -0.051 | [7] -0.048 | doramapimod 0.227 | ispinesib -0.119

RPL14 (UniProt P50914)
inactive: [1] -0.135 | filanesib 0.744 | zotarolimus 0.154 | idasanutlin 0.349 | alisertib -0.181 | [2] -0.154 | gefitinib -0.035 | [3] -0.475 | lapatinib 0.367 | pictilisib -0.167 | [4] -0.063 | crizotinib 0.05 | [5] -1.18 | [6] 0.699 | duvelisib -0.287 | gandotinib 0.598 | tozasertib 0.038 | [7] 0.117 | doramapimod 0.33 | ispinesib -0.203

RPL30 (UniProt P62888)
inactive: [1] -0.106 | filanesib 0.405 | zotarolimus -0.056 | idasanutlin 0.318 | alisertib -0.194 | [2] -0.198 | gefitinib -0.083 | [3] -0.38 | lapatinib 0.357 | pictilisib -0.261 | [4] -0.217 | crizotinib 0.064 | [5] -1.11 | [6] 0.581 | duvelisib -0.236 | gandotinib 0.428 | tozasertib 0.011 | [7] 0.142 | doramapimod 0.324 | ispinesib -0.262

RPL27 (UniProt P61353)
inactive: [1] -0.007 | filanesib 0.486 | zotarolimus 0.088 | idasanutlin 0.255 | alisertib -0.126 | [2] -0.118 | gefitinib -0.072 | [3] -0.338 | lapatinib 0.306 | pictilisib -0.189 | [4] -0.221 | crizotinib 0.062 | [5] -1.01 | [6] 0.416 | duvelisib -0.366 | gandotinib 0.428 | tozasertib -0.001 | [7] -0.012 | doramapimod 0.306 | ispinesib -0.111

RPAP1 (UniProt Q9BWH6)
inactive: [1] -0.028 | filanesib -0.02 | zotarolimus 0.049 | idasanutlin -0.128 | alisertib -0.012 | [2] -0.009 | gefitinib 0.001 | [3] 0.02 | lapatinib 0.024 | pictilisib -0.02 | [4] 0.015 | crizotinib -0.086 | [5] 0.005 | [6] -0.023 | duvelisib 0.004 | gandotinib -0.083 | tozasertib 0 | [7] 0.052 | doramapimod -0.003 | ispinesib -0.035

RPL18A (UniProt Q02543)
inactive: [1] -0.161 | filanesib 0.77 | zotarolimus 0.038 | idasanutlin 0.385 | alisertib -0.183 | [2] -0.159 | gefitinib -0.076 | [3] -0.48 | lapatinib 0.434 | pictilisib -0.215 | [4] -0.021 | crizotinib 0.039 | [5] -1.16 | [6] 0.686 | duvelisib -0.374 | gandotinib 0.49 | tozasertib 0.09 | [7] 0.031 | doramapimod 0.424 | ispinesib -0.323
